The values below come from article PMC3266240.

Amino acid sequences for entries named in this document (tags omitted). A change or cut given only in a name is not applied to a line headed by its entry. Residues count along the entry.
UniProt Q9HB71, residues 1-177: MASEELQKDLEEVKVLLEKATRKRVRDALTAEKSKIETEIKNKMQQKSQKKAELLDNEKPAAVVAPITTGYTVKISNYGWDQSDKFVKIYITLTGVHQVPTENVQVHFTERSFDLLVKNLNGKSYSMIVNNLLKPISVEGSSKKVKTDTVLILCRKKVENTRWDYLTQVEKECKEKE
UniProt P63208: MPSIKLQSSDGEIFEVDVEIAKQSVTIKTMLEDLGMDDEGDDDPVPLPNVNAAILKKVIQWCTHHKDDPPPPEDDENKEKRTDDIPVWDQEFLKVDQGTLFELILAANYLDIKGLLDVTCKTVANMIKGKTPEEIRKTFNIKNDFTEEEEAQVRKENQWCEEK

The target of the test is CacyBP/SIPΔS100 (C-terminal deletion aa178-229 mutant of CacyBP/SIP, FLAG-tagged) (UniProt Q9HB71). Kind of test: co-IP; lysates of stable MKN45 transfectants (20 mM Tris-HCl pH 7.5, 8 mM MgCl2, 150 mM NaCl, 0.2 mM EGTA, 1% Nonidet P-40); precipitated with serum containing antibodies against CacyBP/SIP and protein A/G-Sepharose at 4°; washes up to 500 mM NaCl; western blot of the partner.

Results are given in words; binding and its absence hold for the method and conditions named. In cells and extracts the contact can be indirect. Some binding calls cover weakened binding; strength is not graded here.

For Skp1 (from UniProt P63208 1-163), the binding entry is given as “binds”.

B1: Siah1 (protein, UniProt Q8IUQ4 1-282)
chain: MSRQTATALPTGTSKCPPSQRVPALTGTTASNNDLASLFECPVCFDYVLPPILQCQSGHLVCSNCRPKLTCCPTCRGPLGSIRNLAMEKVANSVLFPCKYASSGCEITLPHTEKADHEELCEFRPYSCPCPGASCKWQGSLDAVMPHLMHQHKSITTLQGEDIVFLATDINLPGAVDWVMMQSCFGFHFMLVLEKQEKYDGHQQFFAIVQLIGTRKQAENFAYRLELNGHRRRLTWEATPRSIHEGIATAIMNSDCLVFDTSIAQLFAENGNLGINVTISMC
B1: the binding entry is given as “binds”.
